Measurements reported in PubChem BioAssay AID1259405 (NCATS, 2018).

Test: 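Silenced genes that increase secreted GFP made by CHO cells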 (primary screen)
System: Chinese hamster CHO-K1 ovary cells with stable secreted eGFP expression
Reagents: single siRNA against mouse genes, 0.8 pmol siRNA per well (2 µl of 400 nM stock)
Time to read-out: 3 days
Detection: 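Per-well intracellular GFP measured by laser scanning cytometry, plus viability from ATP luminescence, each relative to plate median of non-targeting control wells, in %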
Scale: GFP, % of control: higher = more GFP per well, higher productivity; viability (ATP), % of control: higher = more viable cells (more ATP)
Rule for the call: 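Called active when intracellular GFP, relative to negative control, is at or above 120%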
The whole screen tested about 50,000 reagents; below is a part drawn at random. About 4,000 of them (8%) were called active. 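Mouse siRNA library applied to hamster cells; one well for each siRNA.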 Entries without a mark were called inactive. Reagents against one gene are numbered here.

For Klk1b1 #1, the entry reads GFP, % of control 66.8; viability (ATP), % of control 65.4.
For Klk1b1 #2 the deposit lists GFP, % of control 30.2; viability (ATP), % of control 53.4.
For Klk1b1 #3, the entry reads GFP, % of control 49.3; viability (ATP), % of control 50.3.
With knock-down of Trim7 #1 the results were GFP, % of control 40; viability (ATP), % of control 47.2.
With knock-down of Trim7 #2 the results were GFP, % of control 52.8; viability (ATP), % of control 57.1.
Trim7 #3 gave GFP, % of control 95.9; viability (ATP), % of control 73.4.
Tmem88 #1 gave GFP, % of control 75.3; viability (ATP), % of control 59.
Tmem88 #2 scored GFP, % of control 64.3; viability (ATP), % of control 23.1.
Silencing of Tmem88 #3 came out at: GFP, % of control 92.3; viability (ATP), % of control 95.7.
Utp23 #1 gave GFP, % of control 77.7; viability (ATP), % of control 78.4.
Against Utp23 #2, the values are GFP, % of control 113; viability (ATP), % of control 100.
After knock-down of Utp23 #3, the record shows GFP, % of control 111; viability (ATP), % of control 64.9.
After knock-down of Mill2 #1, the record shows GFP, % of control 107; viability (ATP), % of control 115.
With knock-down of Mill2 #2 the results were GFP, % of control 80.4; viability (ATP), % of control 79.
Mlst8 #1 scored GFP, % of control 41.2; viability (ATP), % of control 70.5.
Mlst8 #2 gave GFP, % of control 72.9; viability (ATP), % of control 84.1.
Mlst8 #3 gave GFP, % of control 29.4; viability (ATP), % of control 21.8.

No new results follow: 2 of the entries above.
Tmem88 #1: GFP, % of control = 75.3; viability (ATP), % of control = 59
Tmem88 #2: GFP, % of control = 64.3; viability (ATP), % of control = 23.1
